According to article PMC7819943, “Rice protein-binding microarrays: a tool to detect cis-acting elements near promoter regions in rice”:
Some of the results follow.

By UniProt entry, the sequences of proteins in these tests, tags left out.
UniProt Q0JBA9, entry or part of it: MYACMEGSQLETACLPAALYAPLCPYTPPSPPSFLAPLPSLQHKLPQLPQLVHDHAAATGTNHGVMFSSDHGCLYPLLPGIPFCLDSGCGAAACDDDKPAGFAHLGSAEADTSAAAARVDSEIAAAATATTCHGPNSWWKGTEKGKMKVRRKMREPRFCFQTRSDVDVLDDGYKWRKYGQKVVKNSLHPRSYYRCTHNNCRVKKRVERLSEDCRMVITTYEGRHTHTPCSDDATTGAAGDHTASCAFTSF

Target: OsWRKY34 (Oryza sativa, UniProt Q0JBA9 1-250)
Experiment: protein-binding microarray (RPBM); PBS, 2% BSA, 51.3 ng/ul salmon testes DNA, 50 uM zinc acetate, 200 nM TF, 25 C, 1 h; high values mean tight binding
Conditions: protein: recombinant; tags: N-terminal polyhistidine and DsRed monomer fusion (pET32a); label: CyDye5-dUTP incorporated in the synthesized complementary strand; 3' TTTTT single-stranded linker to array surface; dsDNA, one strand shown
In short: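 The binding signal is fluorescence intensity per feature, in arbitrary units, read on an Axon 4000B scanner. Polyhistidine- and DsRed-tagged transcription factors (N-terminal fusions) from E. coli BL21-CodonPlus were purified on Ni–NTA and applied at 200 nM for 1 h at 25 °C to a double-stranded, BSA-blocked custom Agilent array in buffer with 50 µM zinc acetate.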

Sequence	binding signal
TACTATTACTATTGGCAGTATGGCAGGCACGTATTTTTTTCGGAGTCACCTAGTGCAG	9260 fluorescence intensity (a.u.)
AGACGGACGGGAGGGGAGGGGTCCAAATTAAAACTCCAAACGGAGTCACCTAGTGCAG	10300 fluorescence intensity (a.u.)
ATGAATCCCCAAGAGCTCTGTATCTCTCCATCCTGCTAAACGGAGTCACCTAGTGCAG	8370 fluorescence intensity (a.u.)
ATCGTCCATTTCGTTTTCCCTCCAGTGTTTCAGGAATTTACGGAGTCACCTAGTGCAG	9860 fluorescence intensity (a.u.)
GAGCTCATTGTCTTCCCATCTCCCAACGCTATCATGGTGACGGAGTCACCTAGTGCAG	8230 fluorescence intensity (a.u.)
CCTTTTTCCCATGGTCACACTTGTTTCGTTTGGTCAAACACGGAGTCACCTAGTGCAG	11700 fluorescence intensity (a.u.)
ACCAGCCGCTTCGCTTCGCCTCGATTCCAACCCTAGCCCTCGGAGTCACCTAGTGCAG	11100 fluorescence intensity (a.u.)
GGTTTGTAGGATGTGACAATCCTAATTTTTTGTTTGGTTGCGGAGTCACCTAGTGCAG	10100 fluorescence intensity (a.u.)
ATACCTAGAAATTCCACAGTTTTCGCCATACCTGTTACCACGGAGTCACCTAGTGCAG	8820 fluorescence intensity (a.u.)
CATGCGCTGAATGCTCTAAGTTTCTTTTCTTGTCTAATACCGGAGTCACCTAGTGCAG	8110 fluorescence intensity (a.u.)
GCGGGCCCGATCTGAGGTGGTGGGAGGGAGGAAGGGATGTCGGAGTCACCTAGTGCAG	12700 fluorescence intensity (a.u.)
CCTCGCTATCGCCAGCCGCGCTCCGCACCAGCCGTCGCTGCGGAGTCACCTAGTGCAG	9080 fluorescence intensity (a.u.)
CGGGCGGGGTCGCGTGCAATGGTTTGTTTGTCAACCTCGGCGGAGTCACCTAGTGCAG	8800 fluorescence intensity (a.u.)
TGTTTGACACCGTTGACTTTTTAGTCGTGTTTGACCATTCCGGAGTCACCTAGTGCAG	24400 fluorescence intensity (a.u.)
GAGATGGATGTGTGGTGATGGCCTAGGATGTGGGATGGATCGGAGTCACCTAGTGCAG	8160 fluorescence intensity (a.u.)
CTCTTCACATTGTCCTGCATATATCTTTTATATTCCAAGACGGAGTCACCTAGTGCAG	9690 fluorescence intensity (a.u.)
CCTCGAGTTTATTCTTTCCGTATCCATTTTGTGCTCTCATCGGAGTCACCTAGTGCAG	9860 fluorescence intensity (a.u.)
AATGTTTGGGTTCGAATTTAGTGGGTGGGTTTGGAGTTTGCGGAGTCACCTAGTGCAG	12800 fluorescence intensity (a.u.)
CTTGCATCACTACCAGTGCCAATCACAACTTTGCTTTCATCGGAGTCACCTAGTGCAG	11000 fluorescence intensity (a.u.)
CCTTGCTGATTTGGCACTTTGACAATTGACACGATCTATCCGGAGTCACCTAGTGCAG	8390 fluorescence intensity (a.u.)
CCCACTCCTCCTGTCTTGTTGCTCACTCACTCTGCTGGCACGGAGTCACCTAGTGCAG	8890 fluorescence intensity (a.u.)

Sequence	binding signal
CTTATATTTAACACCCAAATTCCCAAATCTCGTCCTTTTCCGGAGTCACCTAGTGCAG	8410 fluorescence intensity (a.u.)
TTAGGCTACTTATCTACTTGTACCCATCTGGCTTACACTACGGAGTCACCTAGTGCAG	8130 fluorescence intensity (a.u.)
AGAACAGATGAGTTAATACACAAGGTTAGCAGTATATTTTCGGAGTCACCTAGTGCAG	8790 fluorescence intensity (a.u.)
TTGTATACTTGTAGTACTATCTATACTATTCTACTGCAACCGGAGTCACCTAGTGCAG	9230 fluorescence intensity (a.u.)
TCGCTGCGGCTTTCAATTTCGCGGCTCGTGTTCTTCTCTTCGGAGTCACCTAGTGCAG	9490 fluorescence intensity (a.u.)
ACTATTTAAACCCCACTCGAGCTCACTACTTTCCTCACCACGGAGTCACCTAGTGCAG	8950 fluorescence intensity (a.u.)
TCCATGGGATTTGCCAGTTCTCAAGCACGGCTGTTTTTTTCGGAGTCACCTAGTGCAG	8660 fluorescence intensity (a.u.)
GTTCGTCTTATTTGAAAATTTTTTATGATTATTATTTTTACGGAGTCACCTAGTGCAG	10200 fluorescence intensity (a.u.)
GTTTTGTCCCGCGTTGCATCTTTGACCCCATTGACTAGCTCGGAGTCACCTAGTGCAG	13100 fluorescence intensity (a.u.)
CATACTCACTCCTCGGCTTCTCGTCGTGCTCTGCTCTGTGCGGAGTCACCTAGTGCAG	8250 fluorescence intensity (a.u.)
CACCCTTTTTGGATCACCACATTCCAGCTCTCCTGCTTTTCGGAGTCACCTAGTGCAG	8620 fluorescence intensity (a.u.)
GGTACCTGATTCAATTTATTTGTATGTATATTTTTAATTACGGAGTCACCTAGTGCAG	8820 fluorescence intensity (a.u.)
CAACGTTTAACCATCTGTCTTGTTTGAAAATTTTATGAAACGGAGTCACCTAGTGCAG	8060 fluorescence intensity (a.u.)
GTCGCTATTCTTCTAGTCAAATGATTCAAAAAACGGATCACGGAGTCACCTAGTGCAG	8840 fluorescence intensity (a.u.)
CGCGCCACCTTCCCGCGCGGGTCGTATCCTGGGCATCCGTCGGAGTCACCTAGTGCAG	9380 fluorescence intensity (a.u.)
ATTTTCTTTCTGCAAATGCTAATTACTTATATTAACATCCCGGAGTCACCTAGTGCAG	9270 fluorescence intensity (a.u.)
AGAGGGGTCGTGGTAATTTGGAGTCGGAATAATACACTTTCGGAGTCACCTAGTGCAG	9270 fluorescence intensity (a.u.)
ACTTCATGTACTCTTAACATTATCTGCTTGTACCCTTATCCGGAGTCACCTAGTGCAG	11100 fluorescence intensity (a.u.)
AATGGTATTTAGCCCTCGTGTATCACTTGGTACAAACTCTCGGAGTCACCTAGTGCAG	10000 fluorescence intensity (a.u.)
AATTATTGTCACGTTGCTAGGCTCACCTGAATTCACATCGCGGAGTCACCTAGTGCAG	9910 fluorescence intensity (a.u.)
CAGCTGGCGGTTTTGGGTTTTGTGTTTAGGGTTTAGGAACCGGAGTCACCTAGTGCAG	9430 fluorescence intensity (a.u.)

Fetched one by one from the entries so far:
Sequence	binding signal
GTTTTGTCCCGCGTTGCATCTTTGACCCCATTGACTAGCTCGGAGTCACCTAGTGCAG	13100 fluorescence intensity (a.u.)
CAACGTTTAACCATCTGTCTTGTTTGAAAATTTTATGAAACGGAGTCACCTAGTGCAG	8060 fluorescence intensity (a.u.)
